In the supplement of paper PMC7661543:
Differences between knockout arms are mostly noise.

Test system: BT-20
Test: relative cell number vs DMSO control (72 h) (% of DMSO); higher = less growth inhibition (more cells)
Method: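 QMAP-Seq: a pool of 5 breast cancer cell lines (ZR-75-1, SKBR3, HCC-38, MDA-MB-231, BT-20), each carrying 12 doxycycline-inducible Cas9 sgRNA perturbations (11 knockouts plus non-targeting sgNT), was treated with compounds for 72 h at four 10-fold doses (10 nM-10 uM or 1 nM-1 uM range). Barcodes were amplified and sequenced, and cell number was interpolated from 293T spike-in standard curves. The result is expressed as % of the median of DMSO wells. Two biological replicates.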

CN(C)CC[C@H](CSc1ccccc1)Nc1ccc(S(=O)(=O)NC(=O)c2ccc(N3CCN(Cc4ccccc4-c4ccc(Cl)cc4)CC3)cc2)cc1[N+](=O)[O-] [ABT737]
Settings	relative cell number
sgRNA knockout: sgATF3, 10 nM	112
sgRNA knockout: sgATF3, 100 nM	95.8
sgRNA knockout: sgATF3, 1000 nM	86.6
sgRNA knockout: sgATF3, 10000 nM	85.2
sgRNA knockout: sgATF4, 10 nM	91.4
sgRNA knockout: sgATF4, 100 nM	96.8
sgRNA knockout: sgATF4, 1000 nM	99.3
sgRNA knockout: sgATF4, 10000 nM	80.9
sgRNA knockout: sgATF6, 10 nM	99
sgRNA knockout: sgATF6, 100 nM	89.7
sgRNA knockout: sgATF6, 1000 nM	91.8
sgRNA knockout: sgATF6, 10000 nM	77.6
sgRNA knockout: sgATG7, 10 nM	109
sgRNA knockout: sgATG7, 100 nM	90.2
sgRNA knockout: sgATG7, 1000 nM	99.28
sgRNA knockout: sgATG7, 10000 nM	71.9
sgRNA knockout: sgERN1, 10 nM	91.8
sgRNA knockout: sgERN1, 100 nM	97.3
sgRNA knockout: sgERN1, 1000 nM	87.55
sgRNA knockout: sgERN1, 10000 nM	78.6
sgRNA knockout: sgHSF1, 10 nM	85.6
sgRNA knockout: sgHSF1, 100 nM	81.5
sgRNA knockout: sgHSF1, 1000 nM	96.01
sgRNA knockout: sgHSF1, 10000 nM	87.7
sgRNA knockout: sgHSF2, 10 nM	96.3
sgRNA knockout: sgHSF2, 100 nM	102.8
sgRNA knockout: sgHSF2, 1000 nM	93.2
sgRNA knockout: sgHSF2, 10000 nM	85.4
sgRNA knockout: sgKEAP1, 10 nM	90.2
sgRNA knockout: sgKEAP1, 100 nM	86.9
sgRNA knockout: sgKEAP1, 1000 nM	95.1
sgRNA knockout: sgKEAP1, 10000 nM	70.1
sgRNA knockout: sgNFE2L2, 10 nM	103
sgRNA knockout: sgNFE2L2, 100 nM	106
sgRNA knockout: sgNFE2L2, 1000 nM	94.6
sgRNA knockout: sgNFE2L2, 10000 nM	76.9
sgRNA knockout: sgSLC35F2, 10 nM	90.1
sgRNA knockout: sgSLC35F2, 100 nM	91.9
sgRNA knockout: sgSLC35F2, 1000 nM	87.4
sgRNA knockout: sgSLC35F2, 10000 nM	84.4
sgRNA knockout: sgXBP1, 10 nM	87.3
sgRNA knockout: sgXBP1, 100 nM	96.1
sgRNA knockout: sgXBP1, 1000 nM	101
sgRNA knockout: sgXBP1, 10000 nM	68.9

CN/C(=N\CCSCc1nc[nH]c1C)NC#N [Cimetidine]
Settings	relative cell number
sgRNA knockout: sgATF3, 10 nM	103
sgRNA knockout: sgATF3, 100 nM	93.1
sgRNA knockout: sgATF3, 1000 nM	103
sgRNA knockout: sgATF3, 10000 nM	115
sgRNA knockout: sgATF4, 10 nM	112
sgRNA knockout: sgATF4, 100 nM	96.6
sgRNA knockout: sgATF4, 1000 nM	102.7
sgRNA knockout: sgATF4, 10000 nM	113
sgRNA knockout: sgATF6, 10 nM	109
sgRNA knockout: sgATF6, 100 nM	102
sgRNA knockout: sgATF6, 1000 nM	96.4
sgRNA knockout: sgATF6, 10000 nM	116
sgRNA knockout: sgATG7, 10 nM	112
sgRNA knockout: sgATG7, 100 nM	101
sgRNA knockout: sgATG7, 1000 nM	106
sgRNA knockout: sgATG7, 10000 nM	96
sgRNA knockout: sgERN1, 10 nM	104
sgRNA knockout: sgERN1, 100 nM	114
sgRNA knockout: sgERN1, 1000 nM	95.6
sgRNA knockout: sgERN1, 10000 nM	99.8
sgRNA knockout: sgHSF1, 10 nM	114
sgRNA knockout: sgHSF1, 100 nM	110
sgRNA knockout: sgHSF1, 1000 nM	109
sgRNA knockout: sgHSF1, 10000 nM	99.5
sgRNA knockout: sgHSF2, 10 nM	118
sgRNA knockout: sgHSF2, 100 nM	101
sgRNA knockout: sgHSF2, 1000 nM	103
sgRNA knockout: sgHSF2, 10000 nM	113
sgRNA knockout: sgKEAP1, 10 nM	96.5
sgRNA knockout: sgKEAP1, 100 nM	103
sgRNA knockout: sgKEAP1, 1000 nM	102.4
sgRNA knockout: sgKEAP1, 10000 nM	115
sgRNA knockout: sgNFE2L2, 10 nM	119
sgRNA knockout: sgNFE2L2, 100 nM	130
sgRNA knockout: sgNFE2L2, 1000 nM	104
sgRNA knockout: sgNFE2L2, 10000 nM	121
sgRNA knockout: sgSLC35F2, 10 nM	107
sgRNA knockout: sgSLC35F2, 100 nM	101
sgRNA knockout: sgSLC35F2, 1000 nM	102
sgRNA knockout: sgSLC35F2, 10000 nM	116
sgRNA knockout: sgXBP1, 10 nM	105
sgRNA knockout: sgXBP1, 100 nM	103
sgRNA knockout: sgXBP1, 1000 nM	106
sgRNA knockout: sgXBP1, 10000 nM	110

N#Cc1ccc(COC[C@H]2O[C@@H](n3c(NCc4ccc(Cl)c(Cl)c4)nc4c(N)ncnc43)[C@H](O)[C@@H]2O)cc1
Settings	relative cell number
sgRNA knockout: sgATF3, 10 nM	102
sgRNA knockout: sgATF3, 100 nM	86.2
sgRNA knockout: sgATF3, 1000 nM	112
sgRNA knockout: sgATF3, 10000 nM	69.6
sgRNA knockout: sgATF4, 10 nM	104
sgRNA knockout: sgATF4, 100 nM	114
sgRNA knockout: sgATF4, 1000 nM	95.3
sgRNA knockout: sgATF4, 10000 nM	69.5
sgRNA knockout: sgATF6, 10 nM	96.3
sgRNA knockout: sgATF6, 100 nM	101
sgRNA knockout: sgATF6, 1000 nM	103
sgRNA knockout: sgATF6, 10000 nM	65.3
sgRNA knockout: sgATG7, 10 nM	111
sgRNA knockout: sgATG7, 100 nM	104
sgRNA knockout: sgATG7, 1000 nM	98.9
sgRNA knockout: sgATG7, 10000 nM	70
sgRNA knockout: sgERN1, 10 nM	98
sgRNA knockout: sgERN1, 100 nM	105
sgRNA knockout: sgERN1, 1000 nM	103.5
sgRNA knockout: sgERN1, 10000 nM	80.1
sgRNA knockout: sgHSF1, 10 nM	99.7
sgRNA knockout: sgHSF1, 100 nM	102
sgRNA knockout: sgHSF1, 1000 nM	108
sgRNA knockout: sgHSF1, 10000 nM	72.6
sgRNA knockout: sgHSF2, 10 nM	120.2
sgRNA knockout: sgHSF2, 100 nM	105
sgRNA knockout: sgHSF2, 1000 nM	98.8
sgRNA knockout: sgHSF2, 10000 nM	65.2
sgRNA knockout: sgKEAP1, 10 nM	96.9
sgRNA knockout: sgKEAP1, 100 nM	89.9
sgRNA knockout: sgKEAP1, 1000 nM	109
sgRNA knockout: sgKEAP1, 10000 nM	79.5
sgRNA knockout: sgNFE2L2, 10 nM	109
sgRNA knockout: sgNFE2L2, 100 nM	76.18
sgRNA knockout: sgNFE2L2, 1000 nM	110
sgRNA knockout: sgNFE2L2, 10000 nM	69.2
sgRNA knockout: sgSLC35F2, 10 nM	105
sgRNA knockout: sgSLC35F2, 100 nM	104
sgRNA knockout: sgSLC35F2, 1000 nM	106
sgRNA knockout: sgSLC35F2, 10000 nM	66
sgRNA knockout: sgXBP1, 10 nM	97.4
sgRNA knockout: sgXBP1, 100 nM	96.176
sgRNA knockout: sgXBP1, 1000 nM	105
sgRNA knockout: sgXBP1, 10000 nM	75.7
